Measured values as given in article PMC6365587.
These are yes or no findings as the source states them, for the method shown. In cells and extracts the contact can be indirect. Some binding calls cover weakened binding; strength is not graded here. For some of these results: Where a sequence is shown, tags or fusion partners need not be part of it.

By UniProt entry, the sequences of proteins in these tests, tags left out. Where a name states a change or a piece, a line headed by the entry shows the natural chain unless it says otherwise. Chains listed by the source or under a name are the forms on record and can include a tag or linker. Residues count along the entry.
UniProt P35226: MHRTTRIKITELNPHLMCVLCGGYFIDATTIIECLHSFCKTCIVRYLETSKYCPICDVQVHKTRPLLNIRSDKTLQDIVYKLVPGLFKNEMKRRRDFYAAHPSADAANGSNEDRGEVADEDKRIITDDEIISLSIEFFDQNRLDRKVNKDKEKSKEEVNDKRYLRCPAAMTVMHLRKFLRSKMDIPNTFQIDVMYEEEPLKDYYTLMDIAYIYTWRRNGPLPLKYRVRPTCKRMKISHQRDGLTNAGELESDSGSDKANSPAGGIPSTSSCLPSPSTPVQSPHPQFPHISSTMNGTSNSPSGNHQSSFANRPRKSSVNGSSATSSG
GFP-tagged Lamin A (P02545, residues 1-646): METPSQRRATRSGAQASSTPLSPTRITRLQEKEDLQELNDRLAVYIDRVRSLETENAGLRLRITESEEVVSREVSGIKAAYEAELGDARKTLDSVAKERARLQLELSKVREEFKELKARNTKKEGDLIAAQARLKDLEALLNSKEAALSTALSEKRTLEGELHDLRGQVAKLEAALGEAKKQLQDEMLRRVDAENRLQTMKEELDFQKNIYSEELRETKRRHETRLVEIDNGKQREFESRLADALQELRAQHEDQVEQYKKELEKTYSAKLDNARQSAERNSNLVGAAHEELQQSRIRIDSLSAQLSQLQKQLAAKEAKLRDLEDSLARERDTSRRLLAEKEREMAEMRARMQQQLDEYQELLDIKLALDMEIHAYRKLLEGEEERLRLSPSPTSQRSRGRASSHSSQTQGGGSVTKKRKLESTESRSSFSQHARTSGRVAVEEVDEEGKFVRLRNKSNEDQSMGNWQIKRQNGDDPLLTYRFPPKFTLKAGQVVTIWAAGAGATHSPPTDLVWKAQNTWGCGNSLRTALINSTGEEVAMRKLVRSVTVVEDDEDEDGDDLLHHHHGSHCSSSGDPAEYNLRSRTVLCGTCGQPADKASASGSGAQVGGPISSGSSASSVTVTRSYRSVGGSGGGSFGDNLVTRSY
GFP-tagged Lamin C (P02545-2, form named): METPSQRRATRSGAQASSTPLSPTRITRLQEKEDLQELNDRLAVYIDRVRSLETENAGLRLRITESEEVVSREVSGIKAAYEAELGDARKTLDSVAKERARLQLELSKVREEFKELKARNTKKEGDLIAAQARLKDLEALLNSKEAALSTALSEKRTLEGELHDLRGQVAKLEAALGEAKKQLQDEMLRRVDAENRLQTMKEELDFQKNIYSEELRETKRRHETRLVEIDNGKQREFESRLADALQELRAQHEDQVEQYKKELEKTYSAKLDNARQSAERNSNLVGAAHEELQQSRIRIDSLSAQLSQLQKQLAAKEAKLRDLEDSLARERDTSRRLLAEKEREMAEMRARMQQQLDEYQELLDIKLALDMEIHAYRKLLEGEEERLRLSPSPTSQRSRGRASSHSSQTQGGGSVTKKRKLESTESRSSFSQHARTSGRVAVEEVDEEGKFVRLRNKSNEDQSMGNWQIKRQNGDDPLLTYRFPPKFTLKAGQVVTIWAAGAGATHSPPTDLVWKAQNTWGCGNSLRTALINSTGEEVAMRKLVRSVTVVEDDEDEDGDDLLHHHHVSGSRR
GFP-tagged progerin (P02545-6, form named): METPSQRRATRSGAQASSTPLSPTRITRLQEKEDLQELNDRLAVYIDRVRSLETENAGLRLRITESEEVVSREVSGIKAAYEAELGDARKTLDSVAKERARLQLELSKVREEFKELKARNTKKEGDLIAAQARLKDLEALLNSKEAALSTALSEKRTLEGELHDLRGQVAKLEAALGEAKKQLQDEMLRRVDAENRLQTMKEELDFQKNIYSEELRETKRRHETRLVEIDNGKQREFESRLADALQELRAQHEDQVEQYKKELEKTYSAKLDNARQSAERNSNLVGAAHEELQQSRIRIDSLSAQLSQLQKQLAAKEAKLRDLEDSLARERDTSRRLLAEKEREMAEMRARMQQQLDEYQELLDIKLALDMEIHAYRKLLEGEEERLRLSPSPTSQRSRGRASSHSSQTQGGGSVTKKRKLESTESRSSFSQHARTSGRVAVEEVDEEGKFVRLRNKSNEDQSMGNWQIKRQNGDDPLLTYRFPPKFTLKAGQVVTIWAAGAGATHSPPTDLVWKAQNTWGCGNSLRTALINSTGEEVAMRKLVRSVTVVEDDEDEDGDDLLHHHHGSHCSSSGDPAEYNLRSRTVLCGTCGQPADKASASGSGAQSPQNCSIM

What was measured:
[1] = molecular target: GST-bead-fused p53 middle region (UniProt P04637); assay: pull-down; GST-bead-fused p53 N-terminal or middle region incubated with lysate of HEK293 cells transfected with GFP-Lamin A, B, C or PRG, room temperature, 3 h; washed once each with PBS and RIPA buffer; blot with anti-GFP and GST; only the target purified
[2] = molecular target: T1, FLAG-tagged MEL-18 (UniProt P35227); assay: co-IP; whole-cell lysates expressing FLAG-tagged MEL-18 or BMI-1 and GFP-tagged Lamins; anti-FLAG antibody 4 °C 2 h, protein A/G agarose 4 °C 2 h; washed with RIPA buffer; blot with anti-FLAG, Actin and GFP
T1 sequence: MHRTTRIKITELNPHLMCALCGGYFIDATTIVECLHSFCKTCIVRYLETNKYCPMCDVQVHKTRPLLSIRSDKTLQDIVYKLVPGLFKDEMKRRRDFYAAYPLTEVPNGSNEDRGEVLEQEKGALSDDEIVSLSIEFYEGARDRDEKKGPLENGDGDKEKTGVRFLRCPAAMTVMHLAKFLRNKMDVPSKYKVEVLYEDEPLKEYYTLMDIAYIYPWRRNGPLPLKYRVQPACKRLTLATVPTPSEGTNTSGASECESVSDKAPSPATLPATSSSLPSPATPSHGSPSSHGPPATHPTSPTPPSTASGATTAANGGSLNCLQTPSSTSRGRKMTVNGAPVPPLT

[3] = molecular target: FLAG-tagged BMI-1 (UniProt P35226); assay: as above
[4] = molecular target: GST-bead-fused p53 N-terminal region (UniProt P04637); assay: pull-down; GST-bead-fused p53 N-terminal or middle region incubated with lysate of HEK293 cells transfected with GFP-Lamin A, B, C or PRG, room temperature, 3 h; washed once each with PBS and RIPA buffer; blot with anti-GFP and GST; only the target purified

binding [1] | binding [2] | binding [3] | binding [4] | Substance
binds | binds | binds | – | GFP-tagged Lamin A (from UniProt P02545 1-646)
binds | binds | binds | – | GFP-tagged Lamin C (from UniProt P02545-2 1-572)
binds | binds | binds | binds | GFP-tagged progerin (from UniProt P02545-6 1-614)
